Results are given in words; binding and its absence hold for the method and conditions named. In cells and extracts the contact can be indirect. Binding calls can cover weak binding; strength is not graded here. Tags and fused reporters may be left off the sequences shown.
Target: T1, epitope-tagged chicken cyclin I (CCNI) (chicken) (UniProt F1P1K0)
T1 sequence: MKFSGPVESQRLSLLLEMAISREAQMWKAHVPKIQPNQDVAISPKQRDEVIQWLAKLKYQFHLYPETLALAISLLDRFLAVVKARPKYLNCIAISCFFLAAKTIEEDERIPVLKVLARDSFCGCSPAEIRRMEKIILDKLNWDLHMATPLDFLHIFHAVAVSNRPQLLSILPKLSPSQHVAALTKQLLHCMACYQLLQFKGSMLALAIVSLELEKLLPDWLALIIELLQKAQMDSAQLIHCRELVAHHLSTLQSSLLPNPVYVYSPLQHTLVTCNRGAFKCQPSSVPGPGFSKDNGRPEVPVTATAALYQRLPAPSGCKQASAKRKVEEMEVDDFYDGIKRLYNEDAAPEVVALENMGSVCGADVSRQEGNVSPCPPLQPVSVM
Experiment: co-IP; HEK293 cells transfected with epitope-tagged proteins; lysis in 150 mM NaCl, 50 mM Tris pH 7.5, 1% Triton X-100; immobilized anti-Myc antibody, 4 °C overnight; western blot

- binding: binds
Substance: epitope-tagged chicken CDK5 (enzyme)
